# Construct, isoform or probe ends are uncertain for at least one entry. For part of these data: A weaker result is weaker than the reference pair of the same experiment.
# Assays:
# [1] = tested on: Pol gamma A (catalytic subunit) + Pol gamma B deltaI4 (accessory subunit); experiment: EMSA; conditions: no PARP1, Pol gamma 0.5 uM, DNA 0.75 uM; Buffer RX: 25 mM Hepes pH 7.5, 140 mM KCl, 5 mM MgCl2, 5% glycerol, 1 mM BME; EMSA incubated on ice then room temperature; recombinant protein; protein details: His,His; folded or branched DNA
# [2] = tested on: PARP1 (PARP-1) + Pol gamma A (catalytic subunit) + Pol gamma B deltaI4 (accessory subunit); experiment: EMSA with western blot; conditions: Buffer RX: 25 mM Hepes pH 7.5, 140 mM KCl, 5 mM MgCl2, 5% glycerol, 1 mM BME, EMSA incubated on ice then room temperature, recombinant protein, folded or branched DNA
sequence,measurement,setting,value
CTTTTCTGGTGAAAAGCTCGTCGGCAGCGCTTGAGCAGCGGCAGCTGGTGCTGCCGCTGCTCAAGCGCTGCCGAC [d3ntgap (75-nt dumbbell with 3-nt gap)],binding result,[1],binds
same,binding result,"[2]; NAD+ added, ternary complex dissociates to Pol gamma-DNA",binds more weakly
same,binding result,"[2]; NAD+ and Olaparib, dissociation prevented",binds

# — publication PMC7949115, “Poly(ADP-ribose) polymerase 1 regulates mitochondrial DNA repair in an NAD-dependent manner”
